# Measured values: the supplement of paper PMC9135407
# Several values for one entry are separate records, joined by “and”; a condition that tells them apart may be missing. Equal entries are not always repeated. Structures can show the parent of a compound that is named as a salt. ± gives the standard deviation of the averaged measurements. Some of the results follow. Baselines shift from plate to plate; read single values as rough.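 Culture-activated primary human stellate myofibroblasts, where regained lipid droplets signal inactivation. Value: share of Hoechst-counted cells above a per-plate Bodipy cutoff, in duplicate wells, with DMSO negative and nortriptyline positive controls on each plate. Hits: a control-normalized score above the plate's top-tenth-percentile nortriptyline wells, or one of a plate's three best wells. Final well concentrations are not given.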
# Tested on: primary human hepatic stellate cells (donor 1)
# Assay: percent Bodipy-positive cells; higher = more lipid droplet accumulation
# Conditions: 48 h
# [1] = library stock concentration: 1 mM
# [2] = library stock concentration: 10 mM
# [3] = library stock concentration: 3.33 mM
# [4] = library stock concentration: 6 mM
compound,measurement,setting,value
CCCCCCCC/C=C\CCCCCCCC(=O)NCCS(=O)(=O)O [N-Oleoyl Taurine],percent Bodipy-positive cells,[1],10.8 ± 1.3%
"C[C@@H](O)CCC[C@@H](O)/C=C/[C@H]1C(O)CC(O)C1CCCCCCC(=O)O (stereo partly drawn) [15(R),19(R)-hydroxy Prostaglandin F1.alpha.]",percent Bodipy-positive cells,[1],16.4 ± 4.9%
N=C(N)S/C=C\C(=O)O [ZAPA sulphate],percent Bodipy-positive cells,[2],7.213 ± 0.0042%
Cc1nnc(NS(=O)(=O)c2ccc(N)cc2)s1 [Sulfamethizole],percent Bodipy-positive cells,,7.06 ± 1.4%
same,percent Bodipy-positive cells,[3],8.08 ± 1.6%
same,percent Bodipy-positive cells,[2],18.8% and 19.3%
Cc1c(C(=O)c2ccccc2)c(N)c(-c2ccccc2)n1Cc1ccc(Cl)cc1,percent Bodipy-positive cells,[1],10.5 ± 0.98%
CN1CCC(=C2c3ccccc3CCc3sccc32)CC1.O=C(O)CC(O)C(=O)O [Pizotifen Malate],percent Bodipy-positive cells,[2],94.3 ± 0.95%
CN(C)c1ccc(/C=C2/C(=O)Nc3ccccc32)cc1,percent Bodipy-positive cells,[2],11% and 5.25%
same,percent Bodipy-positive cells,library stock concentration: 18.9 mM,16.9 ± 0.94%
CC1CC(OC(=O)C(O)c2ccccc2)CC(C)(C)N1C (centres undefined) [Eucatropine hydrochloride],percent Bodipy-positive cells,,9.3 ± 5.5%
same,percent Bodipy-positive cells,library stock concentration: 6.1 mM,2.09 ± 1.8%
same,percent Bodipy-positive cells,[2],14.7 ± 4%
CC1=C(C(=O)OC2CCCCC2)C(c2ccc([N+](=O)[O-])cc2)C2=C(CC(C)(C)CC2=O)N1 (centres undefined),percent Bodipy-positive cells,[2],92.2 ± 1.7%
c1cc2c(cc1C1CCCCC1)c1c3n2CCNC3CCC1 (centres undefined) [Tetrindole mesylate],percent Bodipy-positive cells,[2],59.5 ± 11%
C1CCN2C[C@@H]3C[C@@H](CN4CCCC[C@@H]34)[C@H]2C1 [Sparteine (-)],percent Bodipy-positive cells,,21.7 ± 10%
C1CCN2C[C@@H]3C[C@@H](CN4CCCC[C@@H]34)[C@H]2C1 [Sparteine sulfate],percent Bodipy-positive cells,[4],4.6 ± 1.8%
same,percent Bodipy-positive cells,[2],37.9 ± 5%
COc1ccccc1S(=O)(=O)Nc1ccc2c(c1)CN(C)C(=O)N2,percent Bodipy-positive cells,library stock concentration: 80 uM,33.4 ± 0.78%
same,percent Bodipy-positive cells,library stock concentration: 400 uM,47.6 ± 9.8%
same,percent Bodipy-positive cells,library stock concentration: 2 mM,44.8 ± 5.1%
same,percent Bodipy-positive cells,[3],9.81 ± 0.33%
same,percent Bodipy-positive cells,[2],58% and 45.8%
COc1ccc2c(OC)c3ccoc3nc2c1OC [Skimmianine],percent Bodipy-positive cells,,10.6 ± 4.6%
CC[C@@H]1C(=O)N(C)c2cnc(Nc3ccc(C(=O)N[C@H]4CC[C@H](N5CCN(CC6CC6)CC5)CC4)cc3OC)nc2N1C(C)C [Volasertib],percent Bodipy-positive cells,[2],97.41 ± 0.51%
CC(C(=O)O)c1ccc(N2Cc3ccccc3C2=O)cc1 (centres undefined) [Indoprofen],percent Bodipy-positive cells,,12.6 ± 2.1%
same,percent Bodipy-positive cells,library stock concentration: 7.1 mM,2.87 ± 2.3%
same,percent Bodipy-positive cells,[2],16.7 ± 4.7%
CO[C@@]12[C@H](COC(N)=O)C3=C(C(=O)C(C)=C(N)C3=O)N1C[C@@H]1N[C@@H]12 [Mitomycin C],percent Bodipy-positive cells,library stock concentration: 15 mM,42.4 ± 8.4%
CO[C@@]12[C@H](COC(N)=O)C3=C(C(=O)C(C)=C(N)C3=O)N1C[C@@H]1N[C@@H]12 [Mitomycin c],percent Bodipy-positive cells,[4],17.9% and 20.5%
same,percent Bodipy-positive cells,[2],43.6 ± 5.4%
Cc1cc(Nc2ncnc3ccc(-c4ccc(CNCCS(C)(=O)=O)o4)cc23)ccc1Oc1ccn2ncnc2c1 [HER2-Inhibitor-1],percent Bodipy-positive cells,[3],24.1 ± 2.4%
CC1=Nc2ccc(Cl)cc2S(=O)(=O)N1 [Diazoxide],percent Bodipy-positive cells,,23.7 ± 6.5%
same,percent Bodipy-positive cells,library stock concentration: 8.7 mM,10.5% and 7.2%
same,percent Bodipy-positive cells,library stock concentration: 21.7 mM,12.6 ± 7.2%
CC1=Nc2ccc(Cl)cc2S(=O)(=O)N1,percent Bodipy-positive cells,[2],4.63 ± 2.3%
COC(=O)C1=C(C)NC(C)=C(C(=O)OCCCN2CCC(c3ccccc3)(c3ccccc3)CC2)[C@H]1c1cccc([N+](=O)[O-])c1 [Niguldipine],percent Bodipy-positive cells,library stock concentration: 7.7 mM,86.6 ± 8%
COC(=O)C1=C(C)NC(C)=C(C(=O)OCCCN2CCC(c3ccccc3)(c3ccccc3)CC2)[C@H]1c1cccc([N+](=O)[O-])c1 [(S)-(+)-Niguldipine hydrochloride],percent Bodipy-positive cells,[2],80.6 ± 16%
COC(=O)Nc1nc2ccc(SC(C)C)cc2[nH]1 [Methiazole],percent Bodipy-positive cells,,16.2 ± 5.5%
Cc1ccc(Cl)c(Nc2ccccc2C(=O)O)c1Cl [Meclofenamic acid sodium salt monohydrate],percent Bodipy-positive cells,,23.5 ± 9.9%
Cc1ccc(Cl)c(Nc2ccccc2C(=O)O)c1Cl [Meclofenamate Sodium],percent Bodipy-positive cells,[3],24.2 ± 20%
same,percent Bodipy-positive cells,[2],32.7 ± 8.1%
Cc1ccc(Cl)c(Nc2ccccc2C(=O)O)c1Cl [Meclofenamate (sodium salt)],percent Bodipy-positive cells,[1],12.1 ± 0.68%
Cc1ccc(Cl)c(Nc2ccccc2C(=O)O)c1Cl [Meclofenamic acid sodium],percent Bodipy-positive cells,[2],19.2 ± 5.5%
Cc1ccc(Cl)c(Nc2ccccc2C(=O)O)c1Cl [Meclofenamate sodium],percent Bodipy-positive cells,library stock concentration: 6.3 mM,4.02 ± 0.047%
Cc1ccc(Cl)c(Nc2ccccc2C(=O)O)c1Cl [Meclomen],percent Bodipy-positive cells,[2],32.4 ± 1.9%
C=C1/C(=C\C=C2/CCC[C@]3(C)[C@@H]([C@H](C)/C=C/[C@@H](O)C4CC4)CC[C@@H]23)C[C@@H](O)C[C@@H]1O [Calcipotriene],percent Bodipy-positive cells,library stock concentration: 4.8 mM,9.26 ± 1.1%
C=C1/C(=C\C=C2/CCC[C@]3(C)[C@@H]([C@H](C)/C=C/[C@@H](O)C4CC4)CC[C@@H]23)C[C@@H](O)C[C@@H]1O [Calcipotriol],percent Bodipy-positive cells,[2],6.11 ± 0.42%
CCCCCC=CCC=CCC=CCC=CCCCC(=O)OCC(O)CO (centres undefined) [1-Arachidonoyl Glycerol],percent Bodipy-positive cells,[1],7.49 ± 0.38%
O=C(NCCO[N+](=O)[O-])c1cccnc1 [Nicorandil],percent Bodipy-positive cells,,44.2 ± 25%
same,percent Bodipy-positive cells,[3],15.9 ± 8.9%
same,percent Bodipy-positive cells,library stock concentration: 9.5 mM,9.85 ± 0.59%
same,percent Bodipy-positive cells,[2],10.7% and 5.81%
O=C(NCCO[N+](=O)[O-])c1cccnc1,percent Bodipy-positive cells,[2],6.04 ± 0.19%

# Reprinted at random: two records from the list
compound,measurement,setting,value
Cc1ccc(Cl)c(Nc2ccccc2C(=O)O)c1Cl [Meclofenamate (sodium salt)],percent Bodipy-positive cells,[1],12.1 ± 0.68%
COC(=O)C1=C(C)NC(C)=C(C(=O)OCCCN2CCC(c3ccccc3)(c3ccccc3)CC2)[C@H]1c1cccc([N+](=O)[O-])c1 [(S)-(+)-Niguldipine hydrochloride],percent Bodipy-positive cells,[2],80.6 ± 16%
